Values from PubChem BioAssay AID1259308 (NCATS, 2017).
Shown is a random part of about 59,000 reagents. About 1,510 of all reagents (2.6%) were called active. 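Calls use total luciferase alone and ignore viability, so some active siRNAs may act by altering cell number.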 Entries without a mark were called inactive. Reagents against one gene are numbered here. Further read-outs or replicates are left out here.

- Purpose: 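Knock-downs that increase output of a recombinant reporter protein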 (primary screen)
- Cell system: human HEK293 embryonic kidney cells stably expressing firefly luciferase (HEK-CMV-Luc2-Hygro)
- Reagents: single siRNA against human genes, 0.8 pmol siRNA per well
- Time to read-out: 72 h
- Detection: 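Reporter luminescence and viable-cell signal on separate replicate plates, given as percent of non-targeting control and median/MAD z-scores, plus per-cell luciferase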
- Scale: total luciferase, z-score: higher = more reporter protein produced
- Rule for the call: 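Active when the median/MAD z-score for overall luciferase is greater than 3; a gene was taken forward for validation with new siRNAs if at least two of its three siRNAs passed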
- Meaning of the calls: active = raised luciferase; inactive = no rise

Depletion of BCAS1 #1 resulted in: total luciferase, z-score 1.69.
Depletion of BCAS1 #2 resulted in: total luciferase, z-score -0.106.
After knock-down of BCAS1 #3 the results were total luciferase, z-score 1.98.
With knock-down of HRAS #1, the record shows total luciferase, z-score -0.0762.
Knock-down of HRAS #2 came out at: total luciferase, z-score 1.22.
HRAS #3 showed total luciferase, z-score -1.62.
HSPB7 #1 scored total luciferase, z-score -1.19.
With knock-down of HSPB7 #2 the results were total luciferase, z-score 3.12 (active).
Depletion of HSPB7 #3 came out at: total luciferase, z-score -1.51.
For CTBP2 #1, the entry reads total luciferase, z-score 0.43.
CTBP2 #2 gave total luciferase, z-score -1.29.
For CTBP2 #3 the deposit lists total luciferase, z-score 0.0565.

A few values from above:
Under “total luciferase, z-score”, BCAS1 #2 reads -0.106
HSPB7 #1, total luciferase, z-score: -1.19
HRAS #2, total luciferase, z-score: 1.22
Value of HSPB7 #3 in “total luciferase, z-score”: -1.51
Result for CTBP2 #2 in “total luciferase, z-score”: -1.29

The results go on:
After knock-down of DEPP1 #1 the results were total luciferase, z-score 1.48.
Against DEPP1 #2 the deposit lists total luciferase, z-score 0.505.
Depletion of DEPP1 #3 came out at: total luciferase, z-score -0.96.
Depletion of GLB1 #1 resulted in: total luciferase, z-score 0.339.
GLB1 #2 gave total luciferase, z-score -0.391.
Knock-down of GLB1 #3 gave: total luciferase, z-score -1.31.
After knock-down of IGSF1 #1 the results were total luciferase, z-score -1.47.
Silencing of IGSF1 #2 resulted in: total luciferase, z-score -1.
After knock-down of IGSF1 #3 the results were total luciferase, z-score -0.0395.
For PFKFB4 #1 the deposit lists total luciferase, z-score -1.44.
After knock-down of PFKFB4 #2, the record shows total luciferase, z-score -0.104.
PFKFB4 #3 showed total luciferase, z-score 1.16.
TXNDC2 #1 showed total luciferase, z-score 0.0962.
TXNDC2 #2 scored total luciferase, z-score -0.123.
With knock-down of TXNDC2 #3 the results were total luciferase, z-score 1.4.
Knock-down of PPFIBP1 #1 resulted in: total luciferase, z-score -0.747.
For PPFIBP1 #2, the entry reads total luciferase, z-score -0.393.
After knock-down of PPFIBP1 #3 the results were total luciferase, z-score -0.584.
Against LSM14A #1, the values are total luciferase, z-score 3.04 (active).
Against LSM14A #2 the deposit lists total luciferase, z-score -0.144.
Against LSM14A #3, the values are total luciferase, z-score -0.573.
